Measurements taken from PubChem BioAssay AID743255 (National Center for Advancing Translational Sciences (NCATS), 2014).
Out of some 390,000 compounds screened, about 910 (0.23%) were called active. This list was built around the results that the source calls inconclusive (neither active nor inactive); the mix of calls is not that of the screen. The call rests on the fitted dose curve; in most records, active means well fitted inhibition curve with a large enough effect; inconclusive means small, poorly fitted or top-dose-only effect; inactive means no such curve, though single readings can be large or run the other way. Where the call is inconclusive, the potency comes from a doubtful curve fit.

By UniProt entry, the sequences of proteins in these tests, tags left out. Where a name states a change or a piece, a line headed by the entry shows the natural chain unless it says otherwise.
UniProt O94782: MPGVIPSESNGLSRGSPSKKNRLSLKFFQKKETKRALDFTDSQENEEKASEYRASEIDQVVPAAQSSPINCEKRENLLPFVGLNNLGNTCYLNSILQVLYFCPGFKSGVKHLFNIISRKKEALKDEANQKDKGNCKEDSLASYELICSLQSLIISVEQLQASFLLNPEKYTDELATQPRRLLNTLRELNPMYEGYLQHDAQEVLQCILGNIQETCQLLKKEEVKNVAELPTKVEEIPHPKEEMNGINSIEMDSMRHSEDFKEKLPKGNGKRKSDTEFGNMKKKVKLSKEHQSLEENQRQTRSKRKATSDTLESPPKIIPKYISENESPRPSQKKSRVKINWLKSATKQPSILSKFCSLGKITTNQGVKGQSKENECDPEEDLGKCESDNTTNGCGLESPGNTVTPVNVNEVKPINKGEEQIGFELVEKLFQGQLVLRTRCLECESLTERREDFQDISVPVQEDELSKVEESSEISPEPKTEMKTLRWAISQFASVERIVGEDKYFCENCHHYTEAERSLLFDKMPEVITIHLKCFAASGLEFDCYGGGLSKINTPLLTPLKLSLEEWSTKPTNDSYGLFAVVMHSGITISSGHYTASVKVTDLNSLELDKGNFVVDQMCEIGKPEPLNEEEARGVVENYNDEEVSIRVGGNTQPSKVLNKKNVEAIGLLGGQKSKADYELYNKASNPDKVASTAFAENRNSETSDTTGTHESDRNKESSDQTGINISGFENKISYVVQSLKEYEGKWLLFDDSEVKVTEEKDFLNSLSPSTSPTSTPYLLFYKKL

What follows are compounds tested against Ubiquitin carboxyl-terminal hydrolase 1 (Homo sapiens) (UniProt O94782) (assay: Inhibitors of USP1/UAF1: Primary Screen). Settings: recombinant USP1/UAF1, Ub-Rhodamine cleavage fluorescence; activity change, negative = inhibition: at 57.1 µM (top of the series).
Procedure, shortened: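 High-throughput fluorogenic screen: 1nM USP1/UAF1 complex, Ub-Rho substrate 150nM final, 50mM HEPES pH 7.8 with 0.5mM EDTA, 0.1 mg/ml BSA, 1mM TCEP and 0.01% Tween-20.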
Further: nearly all actives have a fitted effect of over 60% in size.
On the % scale 0 is the no-effect control and ±100 the full control effect; potency means the concentration at half of the fitted maximal effect.

Potency, inconclusive:
CC1=NNC(=O)/C1=C\c1cn(-c2ccccc2)nc1-c1ccc(F)cc1 7.08 µM [inhibitor, single point], CCCC(C(=O)NC1CCCC1)N(Cc1ccc(F)cc1)C(=O)c1snc(C(N)=O)c1N (stereo unspecified) 35.5 µM [inhibitor, single point], Cc1cc(C(=O)COC(=O)c2cc(O)c3ccccc3c2O)c(C)n1CC1CCCO1 (stereo unspecified) 39.8 µM [inhibitor, partial curve], CCOC(=O)c1c(C)[nH]c(C)c1S(=O)(=O)N(C)CC(=O)N1CCN(c2ccccc2)CC1 50.1 µM [inhibitor, partial curve, poor fit], COCc1cc(C)nc(OCC(=O)N/N=C/c2ccccc2)c1C#N 12.6 µM [inhibitor, partial curve], CC1CC(c2ccccc2)=Nc2ccccc2N1 (stereo unspecified) 28.2 µM [inhibitor, partial curve], CCOc1ccc(CCNC(=O)c2cn(C)c3ccc(S(=O)(=O)N4CCCCCC4)cc3c2=O)cc1OCC 0.251 µM [inhibitor, full curve, poor fit], Cc1ccc2c(=O)cc(C(=O)Nc3nc4ccc(Cl)cc4s3)oc2c1C 3.98 µM [inhibitor, partial curve], CCOc1ccc(S(=O)(=O)N2CCN(C(=O)C3CC3C)CC2)cc1 (stereo unspecified) 6.31 µM [inhibitor, partial curve], O=C(C1CCC(=O)N(C2CC2)C1)N1CCC(Oc2cccc(C(F)(F)F)c2)CC1 (stereo unspecified) 14.1 µM [inhibitor, partial curve, poor fit], O=C(C[C@H]1C[C@H](C(=O)N2CCOCC2)[C@@]2(CCC3CCCC3)c3[nH]c4ccc(Cl)cc4c3CCN2C1=O)NCCc1ccccn1 70.8 µM [inhibitor, partial curve, poor fit], CC(C)(C)OC(=O)N1CCC(c2c(C(=O)NCCN3CCc4ccccc4C3)cnn2-c2ccc(F)cc2F)CC1 31.6 µM [inhibitor, partial curve], CSCC[C@H](NC(=O)Nc1ccc(C)cc1)C(=O)O 35.5 µM [inhibitor, partial curve, poor fit], COc1ccc(C2CC(c3cccs3)=NN2c2ccc(C=O)cc2)cc1 (stereo unspecified) 35.5 µM [inhibitor, partial curve, poor fit], CCOc1ccc(N2CC(c3nc4ccccc4n3CCCOc3ccccc3)CC2=O)cc1 (stereo unspecified) 39.8 µM [inhibitor, single point], COc1ccc(NC(=O)/C(Cl)=C(/Cl)S(=O)(=O)Cc2ccccc2)cn1 39.8 µM [inhibitor, partial curve], Cc1cc(Cl)ccc1OCc1nc(-c2ccc(-n3cccc3)cc2)no1 44.7 µM [inhibitor, partial curve, poor fit], CCCOc1cc(N)ccc1C(=O)OCCN(CC)CC 14.1 µM [inhibitor, partial curve, poor fit], Cc1cccc(-c2nc(C#N)c(N3CCCCCC3)o2)c1 3.55 µM [inhibitor, partial curve], Cc1ccccc1CN1[C@@H](Cc2ccccc2)COCCS1(=O)=O 5.62 µM [inhibitor, partial curve], O=C(NCc1ccco1)C12CN(Cc3ccccc3)CC1C(c1cccc([N+](=O)[O-])c1)=NO2 (stereo unspecified) 39.8 µM [inhibitor, single point], COc1ccc2nc3n(c(=O)c2c1)-c1ncccc1C(=O)NC3C (stereo unspecified) 0.251 µM [inhibitor, full curve, poor fit], O=[N+]([O-])c1cccc(N=Nc2ccc(O)cc2O)c1 31.6 µM [inhibitor, single point], Clc1cccc(-n2ncc3c(N4CCC(Cc5ccccc5)CC4)ncnc32)c1 0.447 µM [inhibitor, full curve, poor fit], Cc1ccsc1C(=O)OCC(=O)Nc1cccc(S(=O)(=O)N2CCCCC2)c1 0.251 µM [inhibitor, full curve, poor fit], N#Cc1cccc(Nc2c3c(nc4ccccc24)CCCC3)c1 3.98 µM [inhibitor, full curve], COc1cccc(N2CCN(S(=O)(=O)c3ccc(-n4cnnn4)cc3)CC2)c1 3.55 µM [inhibitor, full curve, poor fit], CCOc1ccc(NCc2cc3c(C(C)(C)C)nn(-c4ccccc4)c3[nH]c2=O)cc1 25.1 µM [inhibitor, single point], O=C1CSc2ccccc2N1 2.51 µM [inhibitor, full curve, poor fit], Nc1nc(N)c(Br)c(Nc2ccc(Cl)c(Cl)c2)n1 44.7 µM [inhibitor, partial curve, poor fit], O=C(O)CSc1nc(-c2cccs2)cc(C(F)(F)F)n1 15.8 µM [inhibitor, partial curve], Cc1ccc(NC(=S)NC2CC3CCCC(C2)N3Cc2cccs2)cc1 (stereo unspecified) 0.501 µM [inhibitor, partial curve, poor fit], COc1ccc(Nc2cc(C(=O)NCCCN3CCN(c4ccc(OC)cc4)CC3)c3ccccc3n2)cc1 0.708 µM [inhibitor, full curve, poor fit], Cc1ccc(NC(=O)CSc2ccc(-c3cccs3)nn2)cc1Cl 35.5 µM [inhibitor, partial curve], Cc1cc(=O)n2c3c(c4c(cc13)c(CN(C)C)cc(=O)n4C)OC2 35.5 µM [inhibitor, partial curve], COc1ccc(OC)c(CNC(=O)Cc2ccc(NC(=O)N3CCSc4ncccc43)cc2)c1 0.631 µM [inhibitor, full curve, poor fit], CCOC(=O)c1c(NC(=O)CSc2nc3ccccc3o2)sc(C)c1C 35.5 µM [inhibitor, single point], COc1ccc(-c2noc(-c3ccc(N4CCN(c5ccccc5)CC4)c([N+](=O)[O-])c3)n2)cc1OC 10 µM [inhibitor, partial curve, poor fit], COC(=O)c1cc(-c2cccs2)nc2ccccc12 4.47 µM [inhibitor, single point], COc1cccc(-c2csc(N3CCN(C(=O)Nc4ccccc4OC)CC3)n2)c1 25.1 µM [inhibitor, single point], O=C1C(Cc2ccc3[nH]ccc3c2)NC(=S)N1c1ccccc1 (stereo unspecified) 39.8 µM [inhibitor, single point], COC(=O)C1CC(Cl)CN1c1ncc(C(F)(F)F)cc1Cl (stereo unspecified) 0.398 µM [inhibitor, full curve, poor fit], N=C(N)c1ccc(N=Nc2c(O)ccc3c2[nH]c2ccccc23)cc1 28.2 µM [inhibitor, partial curve], CC(C)c1nc(N2CCN(C(=O)c3ccco3)CC2)c(C#N)c2c1COC(C)(C)C2 50.1 µM [inhibitor, partial curve, poor fit]

Potency, active:
NC1=C(Br)C(=O)c2ncccc2C1=O 4.47 µM

Potency, inactive:
N#Cc1c(/N=C/c2ccco2)sc2c1CCC2, COc1ccc(/C=C/C(=O)Nc2ccc3nc4c(c(Nc5ccccc5OC)c3c2)CCCC4)cc1, CCN(Cc1cccs1)C(=O)CN1C(=O)NC(c2ccccc2)(c2ccccc2)C1=O, Cc1ccc(-c2cc(-c3ccccc3)no2)cc1, COc1cccc(-c2ncnn2-c2sc3c(c2C#N)CCCCC3)c1OC, Cc1ccc(CN(C(=O)COc2ccc([N+](=O)[O-])cc2)c2ccccn2)cc1, CCOC(=O)c1c(C)[nH]c(C2=NNC(=NC3CC3)SC2)c1C, COC(=O)c1cc(NC(=O)c2cccs2)ccc1N1CCOCC1, CC1(C)C2CCC(C2)C1C/C=N/NC(N)=S (stereo unspecified), CCOC(=O)C(C(=O)N(C)C)c1ncc(C(F)(F)F)cc1Cl (stereo unspecified), Cc1csc2ncc(C(=O)NCc3ccc4c(c3)OCO4)c(=O)n12, CC1(C)CC(=O)C(C(C2=C(O)CC(C)(C)CC2=O)c2ccc(Cl)c([N+](=O)[O-])c2)C(=O)C1 (stereo unspecified), Nc1ccc(N2CCN(c3ncc(C(F)(F)F)cc3Cl)CC2)c(C(F)(F)F)c1, Cc1cc(C)nc(SCC(=O)N/N=C/c2cccnc2)n1, COc1ccccc1NS(=O)(=O)c1cc(NC(=O)C(C)(C)C)ccc1N1CCOCC1, COc1cc2c(cc1OC)C(COc1ccccc1OC)N(C(=O)COc1ccc(Cl)cc1)CC2 (stereo unspecified), COc1ccc(COc2cc(-c3cccc(OC)c3)nc3ccc(NC(=O)c4ccc(Cl)cc4)cc23)cc1, Cc1ccc(S(=O)(=O)N2[C@@H](c3cccc(Cl)c3)C(C(=O)O)=CC[C@H]2c2ccc(Cl)cc2)cc1, CCC(C(=O)NC1C(=O)N2C(C(=O)O)=C(CSc3nnc(C)s3)CSC12)c1ccccc1 (stereo unspecified), c1coc(-c2nc3ccccc3nc2-c2ccco2)c1

Activity change, negative = inhibition, inconclusive:
Cn1c2ccccc2c(=O)c2ccc(C#Cc3ccccn3)cc21 -34.9% [inhibitor]
